Source: doi:10.1101/2023.12.09.570886
No constants are given. Whether binding was seen depends on the method and setting. Binding seen in cells or lysates may run through a third protein. Here binding means that the protein was enriched with, or labelled near, the bait; the list need not be complete. For some assays here: No binding means not detected with the bait.

Protein sequences, listed by entry. Tags and fused reporters are not part of them.
UniProt O00161: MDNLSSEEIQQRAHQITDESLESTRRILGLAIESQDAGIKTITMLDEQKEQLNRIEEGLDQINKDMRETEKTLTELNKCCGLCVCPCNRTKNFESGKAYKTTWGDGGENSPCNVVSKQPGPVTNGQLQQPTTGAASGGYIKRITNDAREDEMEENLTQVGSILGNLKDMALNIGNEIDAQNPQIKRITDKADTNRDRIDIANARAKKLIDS
UniProt P46940: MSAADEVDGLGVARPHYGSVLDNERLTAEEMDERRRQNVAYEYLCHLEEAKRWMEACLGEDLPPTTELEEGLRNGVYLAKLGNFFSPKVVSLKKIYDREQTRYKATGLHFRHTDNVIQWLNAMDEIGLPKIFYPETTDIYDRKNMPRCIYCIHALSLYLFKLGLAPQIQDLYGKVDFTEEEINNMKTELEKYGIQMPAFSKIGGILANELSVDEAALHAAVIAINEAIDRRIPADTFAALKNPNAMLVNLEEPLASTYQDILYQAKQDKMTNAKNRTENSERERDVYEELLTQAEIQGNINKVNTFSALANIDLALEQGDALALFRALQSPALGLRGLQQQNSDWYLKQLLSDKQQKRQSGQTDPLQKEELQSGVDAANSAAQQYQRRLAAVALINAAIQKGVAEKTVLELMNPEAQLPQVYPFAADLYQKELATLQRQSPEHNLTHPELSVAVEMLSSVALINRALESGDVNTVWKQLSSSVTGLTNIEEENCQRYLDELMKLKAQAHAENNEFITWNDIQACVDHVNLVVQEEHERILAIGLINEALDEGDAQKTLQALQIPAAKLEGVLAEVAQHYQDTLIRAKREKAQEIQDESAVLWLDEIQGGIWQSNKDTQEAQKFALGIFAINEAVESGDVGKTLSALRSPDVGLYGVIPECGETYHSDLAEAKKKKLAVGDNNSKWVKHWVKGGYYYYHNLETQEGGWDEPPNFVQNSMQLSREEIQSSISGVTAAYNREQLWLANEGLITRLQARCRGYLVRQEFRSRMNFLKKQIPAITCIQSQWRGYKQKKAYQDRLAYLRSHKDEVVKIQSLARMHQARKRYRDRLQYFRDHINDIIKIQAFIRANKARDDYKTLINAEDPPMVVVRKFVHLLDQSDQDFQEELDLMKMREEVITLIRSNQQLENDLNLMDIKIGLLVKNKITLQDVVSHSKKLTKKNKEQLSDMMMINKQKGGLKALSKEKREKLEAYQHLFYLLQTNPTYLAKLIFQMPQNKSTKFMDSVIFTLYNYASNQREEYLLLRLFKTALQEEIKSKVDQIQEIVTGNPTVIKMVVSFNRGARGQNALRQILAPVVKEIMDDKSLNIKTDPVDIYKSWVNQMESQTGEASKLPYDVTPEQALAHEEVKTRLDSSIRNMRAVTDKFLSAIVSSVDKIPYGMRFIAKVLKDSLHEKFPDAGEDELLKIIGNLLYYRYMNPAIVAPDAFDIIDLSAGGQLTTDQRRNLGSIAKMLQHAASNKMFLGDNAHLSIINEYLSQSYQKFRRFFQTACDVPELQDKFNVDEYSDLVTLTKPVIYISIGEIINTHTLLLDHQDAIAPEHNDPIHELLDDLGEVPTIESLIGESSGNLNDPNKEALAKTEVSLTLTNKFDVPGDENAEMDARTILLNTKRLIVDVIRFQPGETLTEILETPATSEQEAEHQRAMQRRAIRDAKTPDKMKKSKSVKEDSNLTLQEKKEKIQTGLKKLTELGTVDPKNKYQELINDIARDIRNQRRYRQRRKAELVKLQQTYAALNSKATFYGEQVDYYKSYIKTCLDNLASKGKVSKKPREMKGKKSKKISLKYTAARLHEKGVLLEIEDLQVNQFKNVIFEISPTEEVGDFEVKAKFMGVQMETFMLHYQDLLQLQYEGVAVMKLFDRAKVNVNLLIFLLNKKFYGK

Experiments:
[1] = target: t-SNARE protein SNAP-23 (human (endogenous in CFBE41o-6.2 and CFBE41o)) (UniProt O00161); assay: affinity purification with mass spectrometry
[2] = target: t-SNARE protein SNAP-23 (human (endogenous in CFBE41o-6.2 and CFBE41o)) (UniProt O00161); assay: condition: only in ΔF508-CFTR CF HBE cells

Substance: Ras GTPase-activating-like protein IQGAP1 (from UniProt P46940 1-1657)
- binding [1]: binds
- binding [2]: no binding
